Reference: the supplement of paper PMC10849652
The list shows a part of the results.

Protein sequences, listed by entry. Tags and fused reporters are not part of them. Lines headed by an entry give the natural chain unless they say otherwise; changes in a name come on top.
UniProt Q7L5N1: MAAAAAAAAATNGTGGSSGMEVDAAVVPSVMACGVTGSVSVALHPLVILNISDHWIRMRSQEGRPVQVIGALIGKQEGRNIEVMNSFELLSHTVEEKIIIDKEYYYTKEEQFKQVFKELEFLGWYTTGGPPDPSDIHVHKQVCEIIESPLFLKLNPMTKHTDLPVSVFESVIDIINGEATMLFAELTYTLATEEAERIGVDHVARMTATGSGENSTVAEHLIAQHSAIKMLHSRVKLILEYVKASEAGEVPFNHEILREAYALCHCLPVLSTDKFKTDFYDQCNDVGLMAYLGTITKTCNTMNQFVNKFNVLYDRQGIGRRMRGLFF
UniProt Q7Z4G1, whole entry, looked up: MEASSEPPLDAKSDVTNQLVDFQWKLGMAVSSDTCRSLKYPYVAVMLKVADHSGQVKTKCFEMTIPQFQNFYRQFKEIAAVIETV
UniProt Q9UBL6: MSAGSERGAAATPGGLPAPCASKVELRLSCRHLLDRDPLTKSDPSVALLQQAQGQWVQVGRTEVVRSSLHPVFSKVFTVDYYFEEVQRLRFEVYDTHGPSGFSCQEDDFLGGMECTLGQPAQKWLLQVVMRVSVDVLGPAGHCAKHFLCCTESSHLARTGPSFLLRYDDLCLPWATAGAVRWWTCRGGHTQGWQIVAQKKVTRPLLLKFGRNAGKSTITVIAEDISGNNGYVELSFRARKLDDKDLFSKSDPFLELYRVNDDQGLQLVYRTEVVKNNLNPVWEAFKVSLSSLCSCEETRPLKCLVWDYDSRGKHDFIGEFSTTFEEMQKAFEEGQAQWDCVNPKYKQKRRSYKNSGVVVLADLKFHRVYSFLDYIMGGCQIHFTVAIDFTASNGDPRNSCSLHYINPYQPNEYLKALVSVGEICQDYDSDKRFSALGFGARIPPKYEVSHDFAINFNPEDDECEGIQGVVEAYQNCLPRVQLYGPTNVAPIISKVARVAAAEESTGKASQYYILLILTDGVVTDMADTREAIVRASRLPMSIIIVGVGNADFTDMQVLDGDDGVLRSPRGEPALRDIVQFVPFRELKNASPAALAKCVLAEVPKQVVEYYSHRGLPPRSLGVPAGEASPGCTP
UniProt Q8N684: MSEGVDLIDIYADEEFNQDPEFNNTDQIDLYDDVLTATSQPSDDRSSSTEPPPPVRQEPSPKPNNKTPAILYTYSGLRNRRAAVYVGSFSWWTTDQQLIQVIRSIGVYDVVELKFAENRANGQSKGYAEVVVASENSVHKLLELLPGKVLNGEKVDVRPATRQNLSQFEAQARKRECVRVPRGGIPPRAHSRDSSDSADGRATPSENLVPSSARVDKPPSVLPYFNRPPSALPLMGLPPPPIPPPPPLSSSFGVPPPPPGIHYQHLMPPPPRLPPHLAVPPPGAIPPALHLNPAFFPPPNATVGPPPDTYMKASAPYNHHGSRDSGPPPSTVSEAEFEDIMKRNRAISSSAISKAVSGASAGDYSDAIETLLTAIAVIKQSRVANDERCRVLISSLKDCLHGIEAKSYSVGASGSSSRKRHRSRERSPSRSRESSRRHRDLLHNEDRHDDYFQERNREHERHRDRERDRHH
UniProt P61201: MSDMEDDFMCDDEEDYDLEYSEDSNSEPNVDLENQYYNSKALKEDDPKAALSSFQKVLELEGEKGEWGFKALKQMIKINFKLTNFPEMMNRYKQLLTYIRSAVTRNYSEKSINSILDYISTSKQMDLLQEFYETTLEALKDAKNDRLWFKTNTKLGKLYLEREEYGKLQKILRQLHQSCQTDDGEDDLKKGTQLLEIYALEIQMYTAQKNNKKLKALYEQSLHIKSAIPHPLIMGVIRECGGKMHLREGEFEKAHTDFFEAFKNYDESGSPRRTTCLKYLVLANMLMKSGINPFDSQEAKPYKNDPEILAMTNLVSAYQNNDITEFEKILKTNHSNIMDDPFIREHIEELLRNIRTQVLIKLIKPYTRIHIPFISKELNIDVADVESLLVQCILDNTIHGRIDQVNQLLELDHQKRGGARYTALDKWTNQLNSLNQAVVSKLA
UniProt Q5HYK3: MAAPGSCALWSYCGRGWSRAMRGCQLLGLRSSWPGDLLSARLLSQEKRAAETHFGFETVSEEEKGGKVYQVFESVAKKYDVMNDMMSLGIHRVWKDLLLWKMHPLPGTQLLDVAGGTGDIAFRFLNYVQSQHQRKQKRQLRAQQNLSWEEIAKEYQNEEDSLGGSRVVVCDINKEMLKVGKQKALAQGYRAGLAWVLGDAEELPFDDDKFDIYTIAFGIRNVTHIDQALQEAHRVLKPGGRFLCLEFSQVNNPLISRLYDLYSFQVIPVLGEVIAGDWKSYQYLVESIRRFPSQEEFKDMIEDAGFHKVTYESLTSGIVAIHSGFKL
UniProt O75208: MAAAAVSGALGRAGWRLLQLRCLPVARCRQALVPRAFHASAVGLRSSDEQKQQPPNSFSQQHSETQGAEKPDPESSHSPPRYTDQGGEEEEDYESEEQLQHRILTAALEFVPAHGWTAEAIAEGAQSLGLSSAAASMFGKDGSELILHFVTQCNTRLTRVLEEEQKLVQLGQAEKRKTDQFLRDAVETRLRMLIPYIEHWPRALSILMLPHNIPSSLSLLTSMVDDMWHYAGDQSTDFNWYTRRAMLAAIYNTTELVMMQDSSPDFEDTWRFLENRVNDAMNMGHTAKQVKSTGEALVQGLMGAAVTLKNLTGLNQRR
UniProt Q99807: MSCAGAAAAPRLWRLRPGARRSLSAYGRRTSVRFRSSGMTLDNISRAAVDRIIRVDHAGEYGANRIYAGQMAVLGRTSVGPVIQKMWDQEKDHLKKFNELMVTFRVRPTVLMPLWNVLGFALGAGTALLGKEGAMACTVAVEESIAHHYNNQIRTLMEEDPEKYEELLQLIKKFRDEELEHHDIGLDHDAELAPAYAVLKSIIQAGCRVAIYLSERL
UniProt Q9BRF8, whole entry, looked up: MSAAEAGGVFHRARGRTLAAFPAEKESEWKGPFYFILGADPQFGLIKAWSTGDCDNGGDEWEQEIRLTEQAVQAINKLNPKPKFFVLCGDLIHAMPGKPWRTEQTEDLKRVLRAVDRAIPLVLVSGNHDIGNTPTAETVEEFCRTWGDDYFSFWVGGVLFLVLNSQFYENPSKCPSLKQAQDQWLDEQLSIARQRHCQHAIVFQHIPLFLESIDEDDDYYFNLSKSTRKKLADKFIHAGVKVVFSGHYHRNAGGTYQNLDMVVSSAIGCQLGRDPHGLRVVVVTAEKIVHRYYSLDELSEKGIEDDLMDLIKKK
UniProt P12109: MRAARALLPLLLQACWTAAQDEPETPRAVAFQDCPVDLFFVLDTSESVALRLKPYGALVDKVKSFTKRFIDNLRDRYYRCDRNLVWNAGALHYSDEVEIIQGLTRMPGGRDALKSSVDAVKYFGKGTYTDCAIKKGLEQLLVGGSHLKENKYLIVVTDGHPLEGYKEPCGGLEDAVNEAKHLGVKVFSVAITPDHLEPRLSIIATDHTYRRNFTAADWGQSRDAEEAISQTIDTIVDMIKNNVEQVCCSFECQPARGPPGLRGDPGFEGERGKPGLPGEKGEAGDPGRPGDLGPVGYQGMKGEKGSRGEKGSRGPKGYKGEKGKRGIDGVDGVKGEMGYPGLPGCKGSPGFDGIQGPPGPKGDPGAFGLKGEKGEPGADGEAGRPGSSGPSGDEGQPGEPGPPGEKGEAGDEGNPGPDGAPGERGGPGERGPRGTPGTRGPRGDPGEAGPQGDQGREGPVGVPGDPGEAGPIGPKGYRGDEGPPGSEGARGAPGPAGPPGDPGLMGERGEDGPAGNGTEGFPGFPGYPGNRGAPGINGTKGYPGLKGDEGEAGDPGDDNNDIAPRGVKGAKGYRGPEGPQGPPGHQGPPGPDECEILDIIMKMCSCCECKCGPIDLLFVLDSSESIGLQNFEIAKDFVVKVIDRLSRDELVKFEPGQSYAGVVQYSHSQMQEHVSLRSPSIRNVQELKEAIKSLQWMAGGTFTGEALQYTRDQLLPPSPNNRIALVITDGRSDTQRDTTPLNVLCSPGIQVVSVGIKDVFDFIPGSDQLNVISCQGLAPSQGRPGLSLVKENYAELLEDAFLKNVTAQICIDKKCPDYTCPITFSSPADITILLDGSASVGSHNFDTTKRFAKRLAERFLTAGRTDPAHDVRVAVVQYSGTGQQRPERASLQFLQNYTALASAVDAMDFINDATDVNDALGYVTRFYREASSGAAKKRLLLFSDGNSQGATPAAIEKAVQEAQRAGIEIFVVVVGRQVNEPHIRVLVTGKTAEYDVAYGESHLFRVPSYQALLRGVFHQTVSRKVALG
UniProt P24311, whole entry, looked up: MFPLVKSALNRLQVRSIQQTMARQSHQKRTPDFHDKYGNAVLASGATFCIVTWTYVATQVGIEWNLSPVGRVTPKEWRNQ
UniProt Q9UNS2: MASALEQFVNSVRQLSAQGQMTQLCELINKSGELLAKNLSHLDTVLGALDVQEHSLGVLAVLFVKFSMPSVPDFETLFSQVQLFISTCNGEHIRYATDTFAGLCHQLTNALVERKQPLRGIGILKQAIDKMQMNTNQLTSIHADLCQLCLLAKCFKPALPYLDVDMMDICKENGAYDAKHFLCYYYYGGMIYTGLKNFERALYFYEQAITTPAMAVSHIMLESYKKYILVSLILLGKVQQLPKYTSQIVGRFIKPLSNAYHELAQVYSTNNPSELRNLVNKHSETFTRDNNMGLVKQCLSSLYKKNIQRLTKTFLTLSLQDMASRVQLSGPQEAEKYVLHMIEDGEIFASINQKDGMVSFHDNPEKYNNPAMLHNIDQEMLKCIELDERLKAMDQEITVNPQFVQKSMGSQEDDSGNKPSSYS
UniProt Q9UI42: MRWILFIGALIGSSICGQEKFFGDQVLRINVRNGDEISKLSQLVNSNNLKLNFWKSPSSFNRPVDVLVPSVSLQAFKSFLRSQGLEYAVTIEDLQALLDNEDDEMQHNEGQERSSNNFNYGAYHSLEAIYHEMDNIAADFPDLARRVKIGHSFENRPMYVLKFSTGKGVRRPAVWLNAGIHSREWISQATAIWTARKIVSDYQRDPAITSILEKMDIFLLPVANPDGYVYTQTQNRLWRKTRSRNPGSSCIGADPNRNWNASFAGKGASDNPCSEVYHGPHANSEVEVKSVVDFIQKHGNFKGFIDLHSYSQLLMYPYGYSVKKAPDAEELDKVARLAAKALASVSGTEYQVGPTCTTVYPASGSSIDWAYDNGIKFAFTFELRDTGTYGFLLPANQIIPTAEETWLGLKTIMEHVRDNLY
UniProt P02461, whole entry, looked up: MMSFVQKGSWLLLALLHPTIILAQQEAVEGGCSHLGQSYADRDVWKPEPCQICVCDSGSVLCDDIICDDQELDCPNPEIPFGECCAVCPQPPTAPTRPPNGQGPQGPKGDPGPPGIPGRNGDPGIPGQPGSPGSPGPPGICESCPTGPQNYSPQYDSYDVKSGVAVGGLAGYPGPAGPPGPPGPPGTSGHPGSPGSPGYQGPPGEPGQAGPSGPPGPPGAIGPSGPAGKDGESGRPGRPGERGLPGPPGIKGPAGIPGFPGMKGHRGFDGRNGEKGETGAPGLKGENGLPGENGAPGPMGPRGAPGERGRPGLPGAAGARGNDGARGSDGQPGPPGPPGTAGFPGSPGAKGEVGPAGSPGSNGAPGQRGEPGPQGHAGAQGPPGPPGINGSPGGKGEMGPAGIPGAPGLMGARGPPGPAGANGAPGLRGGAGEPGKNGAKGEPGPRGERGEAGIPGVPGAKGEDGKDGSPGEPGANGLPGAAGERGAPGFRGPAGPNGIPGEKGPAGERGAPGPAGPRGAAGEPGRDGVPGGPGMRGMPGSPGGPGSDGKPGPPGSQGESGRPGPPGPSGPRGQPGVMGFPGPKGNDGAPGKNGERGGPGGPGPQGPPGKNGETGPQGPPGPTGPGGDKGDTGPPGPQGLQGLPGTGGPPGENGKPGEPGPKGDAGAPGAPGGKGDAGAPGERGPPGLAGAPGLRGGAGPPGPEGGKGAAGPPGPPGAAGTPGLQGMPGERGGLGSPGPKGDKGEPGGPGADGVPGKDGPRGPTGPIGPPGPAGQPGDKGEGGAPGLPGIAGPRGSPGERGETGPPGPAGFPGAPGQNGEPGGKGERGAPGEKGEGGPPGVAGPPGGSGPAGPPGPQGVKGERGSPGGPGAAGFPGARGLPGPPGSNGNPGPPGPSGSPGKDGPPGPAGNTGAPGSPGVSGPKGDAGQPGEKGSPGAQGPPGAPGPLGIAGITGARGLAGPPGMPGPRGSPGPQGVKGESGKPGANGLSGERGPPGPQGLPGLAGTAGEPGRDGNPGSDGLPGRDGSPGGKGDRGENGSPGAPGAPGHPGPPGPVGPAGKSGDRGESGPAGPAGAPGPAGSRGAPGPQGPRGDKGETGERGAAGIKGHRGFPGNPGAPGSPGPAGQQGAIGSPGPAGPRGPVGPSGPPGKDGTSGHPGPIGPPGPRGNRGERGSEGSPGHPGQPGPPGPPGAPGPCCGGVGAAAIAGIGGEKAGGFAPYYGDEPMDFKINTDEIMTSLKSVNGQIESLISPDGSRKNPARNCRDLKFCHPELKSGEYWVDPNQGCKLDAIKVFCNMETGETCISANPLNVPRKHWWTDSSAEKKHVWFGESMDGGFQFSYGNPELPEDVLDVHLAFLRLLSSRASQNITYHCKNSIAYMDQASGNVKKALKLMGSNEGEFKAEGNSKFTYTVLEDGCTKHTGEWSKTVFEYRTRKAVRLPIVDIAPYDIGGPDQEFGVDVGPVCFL

Columns and labels:
Assay in all cases: log2 fold change, soluble protein after heating vs DMSO (PISA); higher = thermal stabilisation; K562 cells, 10 uM, 30 min; active = over 0.2 and 3.5 SD of the protein, either way, in both replicates (recomputed)
erlotinib = compound: C#Cc1cccc(Nc2ncnc3cc(OCCOC)c(OCCOC)cc23)c1 [erlotinib]
Outline: (§1)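 Soluble protein was defined as the supernatant after 21,000xg for 90 min. It came from K562 cells at 2×10^6 cells/mL given 10 μM compound for 30 min, heated in aliquots for 3 min across 48°C-58°C, pooled, and extracted in PBS with 0.5% NP-40 at 4°C, and was quantified by TMTpro 16plex LC-MS/MS with equalised channel sums. Thermal stability against control samples, from duplicates, is reported as log2 fold change.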

[1] = compound: C/C(=N\NC(=O)C1=CC(=CC=C1)S(=O)(=O)N2CCOCC2)/C3=C(C=CC(=C3)Cl)O
Outline: as §1

[2] = compound: C1=CC(=C(C=C1Cl)C2=NC3=NC=CN=C3C(=N2)NC4=CC=NC=C4)F
Outline: as §1

[3] = compound: C1=CC(=CC=C1C2=NC3=C(N2)C=C(C=C3)C(=O)N)OC4=CC=C(C=C4)Cl
Outline: as §1

[4] = compound: C1=CC2=C(C=CC(=C2)/C=C\3/C(=O)NC(=NCC4=CC=CS4)S3)N=C1
Outline: as §1

[5] = compound: C1=CC2=NC=CN=C2C=C1/C=C/3\C(=O)NC(=O)S3
Outline: as §1

[6] = compound: C1=CC=C(C=C1)C2=NC(=C(N2)C3=CC=NC=C3)C4=CC(=C(C=C4)Cl)O
Outline: as §1

[7] = compound: C1=CC=C2C(=C1)C3=NNC4=CC=CC(=C43)C2=O
Outline: as §1

[8] = compound: C1CCN(C1)C(=O)NC2=CC=CC(=C2)NC3=NC=C(C(=N3)NCCC4=CN=CN4)Br
Outline: as §1

[9] = compound: C1CN(CCC1(CC2=CC=C(C=C2)Cl)N)C3=NC=NC4=C3C=CN4
Outline: as §1

Measured: log2 fold change

COPS6 (UniProt Q7L5N1)
inactive: erlotinib -0.065 | [1] 0.045 | [2] 0.038 | [3] 0 | [4] -0.034 | [5] 0.02 | [6] 0.112 | [7] -0.006 | [8] -0.034 | [9] 0.025

COX6A1 (UniProt P12074)
inactive: erlotinib -0.088 | [1] -0.018 | [3] 0.144 | [4] -0.089 | [5] -0.034 | [6] -0.054 | [7] 0.156 | [8] 0.023 | [9] -0.022

COMMD6 isoform 2 (UniProt Q7Z4G1)
inactive: erlotinib -0.028 | [2] 0.073 | [3] -0.037

COMMD10 (UniProt Q9Y6G5)
inactive: erlotinib 0 | [1] 0.093 | [2] 0.026 | [3] 0.034 | [4] 0.064 | [5] 0.011 | [6] -0.02 | [7] -0.014 | [8] -0.079 | [9] -0.048

COQ2 (UniProt Q96H96)
inactive: erlotinib 0.131 | [2] 0.02 | [3] 0.104

CSNK1D (UniProt P48730)
inactive: erlotinib 0.033 | [1] -0.02 | [2] -0.143 | [3] 0.011 | [4] -0.05 | [5] 0.051 | [6] 0.165 | [7] 0.258 | [8] -0.035 | [9] -0.086

COX20 isoform 2 (UniProt Q5RI15)
inactive: erlotinib 0.037 | [1] 0.013 | [2] 0.072 | [3] 0.008 | [4] 0.057 | [5] 0.016 | [6] -0.092 | [7] -0.061 | [8] 0 | [9] 0.03

CPNE7 (UniProt Q9UBL6)
inactive: erlotinib 0.014 | [1] 0.055 | [3] 0.022 | [4] 0.103 | [5] 0.006 | [6] -0.023 | [7] 0.054 | [8] 0.021 | [9] 0.018

CPSF7 isoform 3 (UniProt Q8N684)
inactive: erlotinib -0.035 | [1] 0.054 | [2] -0.015 | [3] 0.041 | [4] -0.001 | [5] 0.005 | [6] 0.01 | [7] -0.005 | [8] -0.035 | [9] -0.016

CRIP2 isoform 2 (UniProt P52943)
inactive: erlotinib 0.003 | [1] -0.032 | [2] 0 | [3] 0.112 | [4] -0.07 | [5] -0.045 | [7] -0.071 | [8] -0.013 | [9] 0.122

COMMD8 (UniProt Q9NX08)
inactive: erlotinib -0.059 | [1] 0.018 | [2] 0.007 | [3] 0.091 | [4] 0.12 | [5] 0.144 | [6] 0.089 | [7] -0.007 | [8] -0.106 | [9] -0.198

CSNK1A1 (UniProt P48729)
inactive: erlotinib 0.073 | [1] 0.002 | [2] -0.028 | [3] -0.002 | [4] -0.008 | [5] 0.018 | [6] -0.029 | [7] -0.088 | [8] 0.001 | [9] -0.064

Copied from the entries so far (5 entries):
COX20 isoform 2 (UniProt Q5RI15)
inactive: erlotinib 0.037 | [1] 0.013 | [2] 0.072 | [3] 0.008 | [4] 0.057 | [5] 0.016 | [6] -0.092 | [7] -0.061 | [8] 0 | [9] 0.03

CPNE7 (UniProt Q9UBL6)
inactive: erlotinib 0.014 | [1] 0.055 | [3] 0.022 | [4] 0.103 | [5] 0.006 | [6] -0.023 | [7] 0.054 | [8] 0.021 | [9] 0.018

CPSF7 isoform 3 (UniProt Q8N684)
inactive: erlotinib -0.035 | [1] 0.054 | [2] -0.015 | [3] 0.041 | [4] -0.001 | [5] 0.005 | [6] 0.01 | [7] -0.005 | [8] -0.035 | [9] -0.016

CRIP2 isoform 2 (UniProt P52943)
inactive: erlotinib 0.003 | [1] -0.032 | [2] 0 | [3] 0.112 | [4] -0.07 | [5] -0.045 | [7] -0.071 | [8] -0.013 | [9] 0.122

COMMD8 (UniProt Q9NX08)
inactive: erlotinib -0.059 | [1] 0.018 | [2] 0.007 | [3] 0.091 | [4] 0.12 | [5] 0.144 | [6] 0.089 | [7] -0.007 | [8] -0.106 | [9] -0.198

Following part.

COPS2 (UniProt P61201)
inactive: erlotinib -0.015 | [1] 0.071 | [2] 0.036 | [3] -0.002 | [4] 0.02 | [5] 0.021 | [6] 0.024 | [7] 0.013 | [8] -0.027 | [9] 0.033

CREB3L2 (UniProt Q70SY1)
inactive: erlotinib 0.424 | [1] 0.104 | [2] 0.057 | [3] -0.264 | [4] 0.113 | [5] -0.174 | [6] -0.1 | [7] -0.045 | [8] -0.206 | [9] 0.173

COTL1 (UniProt Q14019)
inactive: erlotinib 0.013 | [1] 0.043 | [2] 0.033 | [3] -0.016 | [4] -0.006 | [5] 0.046 | [6] 0.009 | [7] 0.006 | [8] -0.005 | [9] 0.016

COQ5 (UniProt Q5HYK3)
inactive: erlotinib 0.008 | [1] 0.134 | [2] 0.044 | [3] 0.058 | [4] 0.075 | [5] 0.034 | [6] -0.008 | [7] 0.027 | [8] 0.03 | [9] 0.012

COMMD9 (UniProt Q9P000)
inactive: erlotinib -0.049 | [1] 0.133 | [2] 0.088 | [3] -0.057 | [4] -0.013 | [5] 0.077 | [6] 0.053 | [7] 0.09 | [8] -0.118 | [9] -0.009

COQ9 (UniProt O75208)
inactive: erlotinib 0.035 | [1] 0.082 | [2] 0.006 | [3] 0.016 | [4] 0.034 | [5] 0.056 | [6] 0.012 | [7] 0.008 | [8] -0.018 | [9] -0.001

CSE1L (UniProt P55060)
inactive: erlotinib -0.005 | [1] 0.056 | [2] 0.064 | [3] -0.033 | [4] 0 | [5] 0.052 | [6] 0.012 | [7] -0.044 | [8] 0.028 | [9] -0.04

COQ7 (UniProt Q99807)
inactive: erlotinib 0.082 | [1] -0.014 | [2] 0.075 | [3] 0.023 | [4] -0.005 | [5] 0.068 | [6] -0.024 | [7] -0.009 | [8] 0.02 | [9] 0.052

COX10 (UniProt Q12887)
inactive: erlotinib 0.061 | [1] 0.037 | [2] 0.155 | [3] 0.175 | [4] 0.051 | [5] 0.108 | [6] -0.204 | [7] -0.048 | [8] 0.04 | [9] 0.021

CPPED1 (UniProt Q9BRF8)
inactive: erlotinib -0.012 | [1] -0.032 | [2] 0.023 | [3] 0.029 | [4] 0.03 | [5] 0.02 | [6] -0.016 | [7] -0.005 | [8] 0.02 | [9] 0.029

COL6A1 (UniProt P12109)
inactive: erlotinib 0.024 | [1] -0.07 | [3] 0.129 | [4] 0.061 | [5] -0.158 | [6] -0.02 | [7] -0.11 | [8] 0.029 | [9] 0.111

CSNK2A2 (UniProt P19784)
inactive: erlotinib -0.053 | [1] -0.08 | [2] 0.046 | [3] -0.006 | [6] -0.038 | [7] 0.185 | [8] 0.034 | [9] -0.047
active: [4] 0.22 | [5] 0.591

COX7B (UniProt P24311)
inactive: erlotinib -0.022 | [1] 0.058 | [2] 0.109 | [3] 0.006 | [4] -0.081 | [5] 0.057 | [7] -0.009 | [8] 0.085 | [9] 0.016

CRADD (UniProt P78560)
inactive: erlotinib -0.036 | [1] 0.113 | [3] 0.032 | [4] 0.122 | [7] 0 | [8] -0.139 | [9] -0.232

CORO7 isoform 3 (UniProt P57737)
inactive: erlotinib 0.003 | [1] 0.016 | [2] 0.091 | [3] 0.002 | [4] -0.054 | [5] 0.089 | [6] 0.058 | [7] 0.022 | [8] -0.038 | [9] 0.018

COPS3 isoform 2 (UniProt Q9UNS2)
inactive: [1] -0.24 | [2] -0.075 | [4] 0.214 | [5] -0.125 | [6] -0.568 | [7] -0.126 | [8] 0.176 | [9] -0.052

CPA4 (UniProt Q9UI42)
inactive: [1] -0.164 | [4] 0.141 | [7] -0.391 | [8] -0.224 | [9] 0.054

CRABP2 (UniProt P29373)
inactive: [2] -0.158

COL3A1 (UniProt P02461)
inactive: erlotinib -0.022 | [2] 0.019 | [3] -0.012 | [6] -0.001 | [8] -0.044 | [9] 0.21

CPTP (UniProt Q5TA50)
inactive: erlotinib 0.181 | [3] -0.181 | [6] -0.168
